Experimental data taken from PMC7277757, “On the Electrochemical Detection of Alpha-Fetoprotein Using Aptamers: DNA Isothermal Amplification Strategies to Improve the Performance of Weak Aptamers”.
pKd: −log10 of the molar value. Construct, isoform or probe ends are uncertain for at least one entry.

Key:
[1] = molecular target: T1, alpha-fetoprotein (AFP) (Homo sapiens) (UniProt P02771); assay: SPR; conditions: aptamer anchored, protein in solution; 1x PBS, 25 °C, 30 min, 1300 rpm; 60 µg AFP-modified magnetic beads in 250 µL (effective AFP about 34 nM); washes 1x PBS 0.01% Tween 20; pH not stated; native protein; single-stranded DNA
T1 sequence: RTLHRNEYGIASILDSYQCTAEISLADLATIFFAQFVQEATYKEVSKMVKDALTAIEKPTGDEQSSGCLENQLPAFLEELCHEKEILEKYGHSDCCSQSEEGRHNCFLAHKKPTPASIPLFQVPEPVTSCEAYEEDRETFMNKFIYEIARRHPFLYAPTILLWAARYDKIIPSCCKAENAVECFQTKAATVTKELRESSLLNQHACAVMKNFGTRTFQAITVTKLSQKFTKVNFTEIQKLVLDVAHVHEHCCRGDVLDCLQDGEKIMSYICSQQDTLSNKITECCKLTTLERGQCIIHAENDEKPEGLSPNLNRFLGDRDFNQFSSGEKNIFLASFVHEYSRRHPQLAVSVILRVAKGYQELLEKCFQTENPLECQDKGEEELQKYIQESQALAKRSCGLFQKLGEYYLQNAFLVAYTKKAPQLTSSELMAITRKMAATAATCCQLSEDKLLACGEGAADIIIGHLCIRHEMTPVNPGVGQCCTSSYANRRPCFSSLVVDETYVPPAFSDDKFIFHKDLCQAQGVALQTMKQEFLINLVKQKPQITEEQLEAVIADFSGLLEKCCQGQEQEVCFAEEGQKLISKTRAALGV

[2] = molecular target: T1, alpha-fetoprotein (AFP) (Homo sapiens); assay: sandwich assay with antibody reporter; conditions: aptamer as capture element; 1x PBS, 25 °C, 30 min, 1300 rpm; 60 µg AFP-modified magnetic beads in 250 µL (effective AFP about 34 nM); washes 1x PBS 0.01% Tween 20; pH not stated; native protein; single-stranded DNA

Question: “GGCAGGAAGACAAACAAGCTTGGCGGCGGGAAGGTGTTTAAATTCCCGGGTCTGCGTGGTCTGTGGTGCTGT [AFP-L (label of cited work not stated)]” was tested. Which pKd [1] did it give?
Answer: 8.63

Question: And the pKd [2]?
Answer: 7.77

Question: “TCAGGTGCAGTTCTCGACTCGGTCTTGATGTGGGT [AFP-S (label of cited work not stated)]” was tested. Which pKd [2] did it give?
Answer: 7.72
